Results deposited as PubChem BioAssay AID504774 (Drosophila RNAi Screening Center, 2011)

Screen: 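Fly genes whose loss alters survival after alkylation damage to DNA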 (primary screen)
Cells: Drosophila Kc167 cells
Knock-down reagent: long dsRNA against Drosophila genes, about 0.25 µg dsRNA per well
Time to read-out: about 6 days: 3 days knock-down, then 3 days with or without MMS
Challenge: methyl methanesulphonate 0.004% (w/v) for 3 days after knock-down
Read-out: 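Viability in wells given MMS, read as ATP luminescence, normalised by quantiles plate by plate and averaged across replicates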
Scale: mean viability with MMS: higher = more surviving cells after MMS
The deposit covers about 23,000 reagents; shown is an unselected part of those with a known target gene and a result. 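Values are quantile-normalised luminescence on an arbitrary scale; higher means more cells surviving MMS.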 A plus sign joins genes that one reagent is predicted to hit. Not all columns of the deposit are shown. No sequences are given here.

| Gene | DRSC id | mean viability with MMS |
| --- | --- | --- |
| Arpc4 | DRSC02917 | 3.26e6 |
| GlcT | DRSC04525 | 3.50e6 |
| CG31253 + CG31131 | DRSC13839 | 3.52e6 |
| Lcp65Aa | DRSC11209 | 3.69e6 |
| Nepl21 | DRSC14133 | 3.44e6 |
| CG10730 | DRSC02102 | 3.54e6 |
| Skeletor (retired record) | DRSC14905 | 3.66e6 |
| Skeletor (retired record) | DRSC14906 | 3.48e6 |
| Daao2 | DRSC02135 | 3.35e6 |
| BaraB | DRSC06420 | 3.60e6 |
| PDZ-GEF | DRSC03231 | 3.51e6 |
| CG13362 | DRSC17897 | 3.47e6 |
| CG11626 | DRSC14336 | 3.55e6 |
| CG30344 | DRSC22510 | 3.63e6 |
| CG15382 | DRSC00397 | 3.38e6 |
| CG11381 | DRSC17780 | 3.24e6 |
| CG13306 | DRSC09976 | 3.54e6 |
| CG10912 | DRSC06009 | 3.61e6 |
| Galphaq | DRSC07432 | 3.64e6 |
| Ugt305A1 | DRSC08541 | 3.44e6 |
| CG6659 | DRSC20003 | 3.64e6 |
| Ttc1 | DRSC15016 | 3.35e6 |
| Ttc1 | DRSC22469 | 3.78e6 |
| CG9727 | DRSC12585 | 3.61e6 |
| Vps45 | DRSC16398 | 3.64e6 |
| ref(2)P | DRSC03601 | 3.50e6 |
| CG18180 | DRSC10304 | 3.60e6 |
| Aptx | DRSC15768 | 3.66e6 |

Reformatted: entries from further up
Gene,DRSC id,mean viability with MMS
Galphaq,DRSC07432,3.64e6
Ugt305A1,DRSC08541,3.44e6

The list goes on.
| Gene | DRSC id | mean viability with MMS |
| --- | --- | --- |
| Spase22-23 | DRSC15857 | 3.69e6 |
| Vm26Ab | DRSC03473 | 3.66e6 |
| Sfp26Ad | DRSC00904 | 3.64e6 |
| fs(1)h | DRSC18778 | 3.59e6 |
| CG42490 (retired record) | DRSC01649 | 3.52e6 |
| Prosalpha4 | DRSC20271 | 3.39e6 |
| CG15336 | DRSC18019 | 3.57e6 |
| CheB42a | DRSC22881 | 3.31e6 |
| CG31482 | DRSC12582 | 3.57e6 |
| RPA1 | DRSC16830 | 3.44e6 |
| azot | DRSC06051 | 3.61e6 |
| CG1161 | DRSC12180 | 3.12e6 |
| Mocs2A + Mocs2B | DRSC13697 | 1.69e6 |
| Mocs2A + Mocs2B | DRSC14219 | 3.72e6 |
| ND-24 | DRSC19960 | 3.81e6 |
| Myc | DRSC18762 | 2.83e6 |
| Fib | DRSC04614 | 3.24e6 |
| Cpn | DRSC16613 | 3.46e6 |
